In the experiment the target is Syn1-his (mouse) (UniProt O88935). Briefly: co-IP; Syn1-his and ABHD17a-flag coexpressed in HEK-293T cells; Syn1 immunoprecipitated.

These are yes or no findings as the source states them, for the method shown. Binding seen in cells or lysates may run through a third protein. Some binding calls cover weakened binding; strength is not graded here. Where a sequence is shown, tags or fusion partners need not be part of it.

B1: ABHD17a-flag (enzyme, UniProt Q99JW1 1-310)
chain: MNGLSVSELCCLFCCPPCPGRIAAKLAFLPPDPTYSLVPEPEPGPGGAGAAPSGPLRTSAATPGRWKIHLTERADFQYGQRELDTIEVFVTKSARANRIACMYVRCVPGARYTVLFSHGNAVDLGQMCSFYVGLGTRIGCNIFSYDYSGYGISSGRPSEKNLYADIDAAWQALRTRYGISPDSIILYGQSIGTVPTVDLASRYECAAVVLHSPLTSGMRVAFPDTKKTYCFDAFPNIEKVSKITSPVLIIHGTEDEVIDFSHGLALYERCPKAVEPLWVEGAGHNDIELYSQYLERLRRFISQELPSQRA
Regarding B1, the binding result is reported as “binds”.
